# PMC7463232
# Chains of the proteins cited; added tags and fusions are not shown.
# UniProt Q9Y6R4: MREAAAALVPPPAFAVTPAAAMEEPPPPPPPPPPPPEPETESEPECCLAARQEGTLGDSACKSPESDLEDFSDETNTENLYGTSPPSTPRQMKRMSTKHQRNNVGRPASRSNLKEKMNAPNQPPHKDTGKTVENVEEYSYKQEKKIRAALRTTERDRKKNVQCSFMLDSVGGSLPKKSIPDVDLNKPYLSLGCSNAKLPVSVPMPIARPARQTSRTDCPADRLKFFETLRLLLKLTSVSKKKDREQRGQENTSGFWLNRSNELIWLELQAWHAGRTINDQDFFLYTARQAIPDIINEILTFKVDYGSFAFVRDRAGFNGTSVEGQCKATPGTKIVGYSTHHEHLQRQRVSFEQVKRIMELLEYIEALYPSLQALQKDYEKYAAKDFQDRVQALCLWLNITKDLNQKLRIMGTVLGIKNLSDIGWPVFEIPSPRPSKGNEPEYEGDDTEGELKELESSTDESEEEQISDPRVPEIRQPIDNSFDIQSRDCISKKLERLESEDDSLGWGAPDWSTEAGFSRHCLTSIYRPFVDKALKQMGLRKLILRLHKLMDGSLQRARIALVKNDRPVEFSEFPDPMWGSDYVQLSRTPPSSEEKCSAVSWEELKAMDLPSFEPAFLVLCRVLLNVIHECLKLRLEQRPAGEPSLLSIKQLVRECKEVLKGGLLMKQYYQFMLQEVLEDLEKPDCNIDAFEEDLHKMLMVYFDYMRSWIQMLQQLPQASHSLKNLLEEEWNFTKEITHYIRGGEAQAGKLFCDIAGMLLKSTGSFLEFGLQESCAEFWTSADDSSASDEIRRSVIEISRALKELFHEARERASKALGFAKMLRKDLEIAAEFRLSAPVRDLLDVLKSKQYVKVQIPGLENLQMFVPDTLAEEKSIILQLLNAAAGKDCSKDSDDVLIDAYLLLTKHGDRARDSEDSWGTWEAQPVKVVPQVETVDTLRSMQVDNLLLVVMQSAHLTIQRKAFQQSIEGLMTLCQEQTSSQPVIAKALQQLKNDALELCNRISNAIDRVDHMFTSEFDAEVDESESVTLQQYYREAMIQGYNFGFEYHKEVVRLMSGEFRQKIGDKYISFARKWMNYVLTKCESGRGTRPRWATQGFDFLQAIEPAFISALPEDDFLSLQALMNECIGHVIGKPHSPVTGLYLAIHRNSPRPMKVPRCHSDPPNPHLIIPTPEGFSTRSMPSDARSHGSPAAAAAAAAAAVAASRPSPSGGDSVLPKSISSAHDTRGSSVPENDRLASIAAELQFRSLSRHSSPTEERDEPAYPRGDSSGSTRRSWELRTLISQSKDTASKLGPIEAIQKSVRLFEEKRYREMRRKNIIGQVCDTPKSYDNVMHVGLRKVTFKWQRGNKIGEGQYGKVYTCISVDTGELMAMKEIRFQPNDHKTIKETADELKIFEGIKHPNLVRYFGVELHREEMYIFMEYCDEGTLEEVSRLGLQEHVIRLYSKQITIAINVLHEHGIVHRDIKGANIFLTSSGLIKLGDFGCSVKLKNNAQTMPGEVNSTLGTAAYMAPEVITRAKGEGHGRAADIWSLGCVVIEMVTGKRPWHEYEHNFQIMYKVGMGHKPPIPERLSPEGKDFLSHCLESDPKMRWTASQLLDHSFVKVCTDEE
# No constants are given. Whether binding was seen depends on the method and setting. Binding seen in cells or lysates may run through a third protein. Some entries that bind do so weakly or less than the wild type.
# Target: T1, Growth arrest and DNA damage inducible beta (GADD45B) (human) (UniProt O75293)
# T1 sequence: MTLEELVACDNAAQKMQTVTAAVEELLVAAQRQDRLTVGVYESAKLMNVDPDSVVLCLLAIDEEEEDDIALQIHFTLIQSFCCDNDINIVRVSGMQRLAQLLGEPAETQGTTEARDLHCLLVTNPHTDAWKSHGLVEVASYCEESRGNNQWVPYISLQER
# Test: co-IP; GADD45B primary antibody (50 µg) covalently coupled to resin (Pierce Co-IP Kit), incubated with 250 µL cell lysate overnight at 4 °C, eluted, western blotting; EC109 cells overexpressing GADD45B or treated with SFE (20 µM)
substance,measurement,value
MAP3K4 (from UniProt Q9Y6R4 1-1608),binding,binds
